Test results: the supplement of paper PMC10727501
This is one part of the list. Single values are uncertain here, since repeats match poorly.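 Free-swimming zebrafish larvae were assessed for O-bend response probability to dark flashes (naive: first five; training: remaining flashes across four 60-flash blocks; test: later 60-flash block) and for OMR turning toward alternating leftward/rightward LED motion. Six treated larvae were compared against sixty 0.1% DMSO controls; hits required |SSMD|≥2.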

What follows are compounds tested on Danio rerio larvae (5 dpf, TLF) (assay: OMR-Perf (SSMD vs DMSO vehicle); higher = higher than vehicle (e.g. higher dark-flash O-bend response probability, or better optomotor performance)). Conditions: 10 µM; pre-incubation: 30-90 min.

In order of falling OMR-Perf:
1. O=C(O)C(Cc1ccccc1N(O)O)=NNC1=NC(c2ccc(Cl)c(Cl)c2)CS1 (stereo unspecified)  0.713
2. CC[C@H](Nc1ncnc2[nH]cnc12)c1nc2cccc(F)c2c(=O)n1-c1ccccc1 [CAL-101 (Idelalisib, GS-1101)]  0.416
3. Cc1ccc(NC(=O)c2ccc(CN3CCN(C)CC3)cc2)cc1Nc1nccc(-c2cccnc2)n1 [Imatinib (STI571)]  0.399
4. Cl.NC(=O)c1cnc(N[C@@H]2CCCC[C@H]2N)nc1Nc1cccc(-n2nccn2)c1  0.319
5. NC[C@H]1O[C@H](O[C@H]2[C@H](O)[C@@H](O[C@H]3O[C@H](CO)[C@@H](O)[C@H](N)[C@H]3O)[C@H](N)C[C@@H]2N)[C@H](N)[C@@H](O)[C@@H]1O [Bekanamycin]  0.167
6. CC(C)(Sc1cc(C(C)(C)C)c(O)c(C(C)(C)C)c1)Sc1cc(C(C)(C)C)c(O)c(C(C)(C)C)c1 [Probucol]  -0.32
7. Cc1ccc2c(c1)c1c(n2CCc2ccc(C)nc2)CCN(C)C1 [Latrepirdine]  -0.627

Each compound was assayed on Danio rerio larvae (5 dpf, TLF) (assay: Prob-Test (SSMD vs DMSO vehicle); higher = higher than vehicle (e.g. higher dark-flash O-bend response probability, or better optomotor performance)). Conditions: 10 µM; pre-incubation: 30-90 min.

In order of falling Prob-Test:
1. NC(=O)NO [Hydroxyurea]  0.699
2. C[C@H]1OC(O)[C@H](O)[C@H](O)[C@H]1O.O (stereo partly drawn) [L-(+)-Rhamnose Monohydrate]  0.479
3. COc1ccc(O)cc1 [Mequinol]  0.461
4. CC(C)(Oc1ccc(Cl)cc1)C(=O)O [Clofibric Acid]  0.38
5. CC(C)(Sc1cc(C(C)(C)C)c(O)c(C(C)(C)C)c1)Sc1cc(C(C)(C)C)c(O)c(C(C)(C)C)c1 [Probucol]  0.373
6. Cn1nnc2c(C(N)=O)ncn2c1=O [Temozolomide]  0.262
7. Cc1cc(NS(=O)(=O)c2ccc(N)cc2)no1 [Sulfamethoxazole]  0.176
8. NC[C@H]1O[C@H](O[C@H]2[C@H](O)[C@@H](O[C@H]3O[C@H](CO)[C@@H](O)[C@H](N)[C@H]3O)[C@H](N)C[C@@H]2N)[C@H](N)[C@@H](O)[C@@H]1O [Bekanamycin]  0.161
9. O.O=c1c(O)c(-c2ccc(O)cc2O)oc2cc(O)cc(O)c12 [Morin Hydrate]  0.0855
10. O=C1CCC(N2C(=O)c3ccccc3C2=O)C(=O)N1 (stereo unspecified) [Thalidomide]  0.0741
11. CCc1c(O)cc(O)c(C(=O)c2ccc(OCCN3CCOCC3)c(OC)c2)c1CC(=O)N(CCOC)CCOC  0.059
12. CO[C@H]1/C=C/O[C@@]2(C)Oc3c(C)c(O)c4c(c3C2=O)C2=NC3(CCN(CC(C)C)CC3)NC2=C(NC(=O)/C(C)=C/C=C/[C@H](C)[C@H](O)[C@@H](C)[C@@H](O)[C@@H](C)[C@H](OC(C)=O)[C@@H]1C)C4=O [Rifabutin]  0.0299
13. O=C1NC(=O)/C(=C/c2ccc3nccc(-c4ccncc4)c3c2)S1  0.0184
14. Nc1nc(=O)[nH]cc1F [Flucytosine]  0.0104
15. Cl.NC(=O)c1cnc(N[C@@H]2CCCC[C@H]2N)nc1Nc1cccc(-n2nccn2)c1  -0.0226
16. Cc1ccc(NC(=O)c2ccc(CN3CCN(C)CC3)cc2)cc1Nc1nccc(-c2cccnc2)n1 [Imatinib (STI571)]  -0.0259
17. NNC(=O)c1ccncc1.Nc1ccc(C(=O)O)c(O)c1 [Pasiniazid]  -0.0373
18. Cc1c(NC(=O)OC[C@@H]2COCCN2)cn2ncnc(Nc3ccc4c(cnn4Cc4cccc(F)c4)c3)c12.Cl  -0.109
19. CN(C)CCOC(C)(c1ccccc1)c1ccccn1.O=C(O)CCC(=O)O (stereo unspecified) [Doxylamine Succinate]  -0.136
20. CC[C@H](Nc1ncnc2[nH]cnc12)c1nc2cccc(F)c2c(=O)n1-c1ccccc1 [CAL-101 (Idelalisib, GS-1101)]  -0.204
21. CN(C)/N=N/c1[nH]cnc1C(N)=O [Dacarbazine]  -0.233
22. O=C(O)C(Cc1ccccc1N(O)O)=NNC1=NC(c2ccc(Cl)c(Cl)c2)CS1 (stereo unspecified)  -0.262
23. Nc1nc(=O)c2c([nH]1)NC[C@H](CNc1ccc(C(=O)N[C@@H](CCC(=O)[O-])C(=O)[O-])cc1)N2C=O.[Ca+2] [Calcium levofolinate (Calcium Folinate)]  -0.288
24. COc1c2occc2cc2ccc(=O)oc12 [Methoxsalen]  -0.302
25. COc1ccc(-c2coc3cc(O)ccc3c2=O)cc1 [Formononetin]  -0.33
26. C=CC(=O)Nc1cccc(Oc2nc(Nc3ccc(N4CCN(C)CC4)cc3OC)ncc2Cl)c1  -0.337
27. C[C@@H]1[C@@H](OC(=O)CCC(=O)O)O[C@H]2O[C@@]3(C)CC[C@H]4[C@@H](C)CC[C@@H]1[C@@]24OO3 [Artesunate]  -0.341
28. Cc1ccc([C@@H]2O[C@H](CO)[C@@H](O)[C@H](O)[C@H]2O)cc1Cc1ccc(-c2ccc(F)cc2)s1 [Canagliflozin]  -0.42
29. O=C1Cc2c([nH]c3ccc(Br)cc23)-c2ncccc2N1 [1-Azakenpaullone]  -0.448
30. CN(C)C(=O)Nc1cccc(-c2ccc(N(C)C)cc2)c1 [Atglistatin]  -0.466
31. O=N[O-].[Na+] [Sodium Nitrite]  -0.501
32. Cc1ccc2c(c1)c1c(n2CCc2ccc(C)nc2)CCN(C)C1 [Latrepirdine]  -0.898
33. C=C1C(=O)[C@]23C(CC[C@@H]1[C@H]2O)[C@]12CO[C@]3(O)[C@H](O)[C@@H]1C(C)(C)CC[C@@H]2O (stereo partly specified) [Oridonin]  -0.932
34. Cc1ccc(S(=O)(=O)n2c(N)nc3ccccc32)cc1 [ML130 (Nodinitib-1)]  -0.971
35. CN(CCOc1ccc(CC2SC(=O)NC2=O)cc1)c1ccccn1.O=C(O)/C=C\C(=O)O (stereo unspecified) [Rosiglitazone maleate]  -1.37
36. O=C1NC(=O)C(=Cc2ccc(-c3ccc(F)cc3)o2)S1 (stereo in doubt)  -1.42
37. CC(=O)[C@@H]1CC[C@H]2[C@@H]3CC=C4C[C@@H](O)CC[C@]4(C)[C@@H]3CC[C@]12C [Pregnenolone]  -1.53
38. C[C@]12CCC(=O)C=C1[C@@H]1C[C@@H]1[C@H]1[C@@H]3[C@@H]4C[C@@H]4[C@]4(CCC(=O)O4)[C@@]3(C)CC[C@H]12 [Drospirenone]  -1.73
39. CCCCOc1ccc(OCCCN2CCOCC2)cc1.Cl [Pramoxine HCl]  -1.79
